Results are given in words; binding and its absence hold for the method and conditions named. Some entries that bind do so weakly or less than the wild type.
Molecular target: rabbit VCAM-1 on transfected CHO cells (rabbit)
Test: flow cytometry on CHO cells transfected with rabbit VCAM-1

binding: binds
B1: cAbVCAM1-5 (VHH)
VHH: QVQLQESGGGSVQTGGSLRLSCAASGYTNSIMYMAWFRQAPGKKREGVAAIRFPDDSAYYAGSVKGRFTISHDNAKNTVYLQMNNLNPEDTAMYYCAARSSPYSFAWNDPSNYNYWGQGTQVTVSS
notes: Dromedary nanobody produced with a hexahistidine tag in E. coli; also called anti-VCAM-1 nanobody; not shown: hexahistidine tag
